In assay [1] the target is murine basigin (on cells) (murine) (UniProt P18572). The assay is described as for anti-Bsg^A and anti-Bsg^B (in vivo immunohistochemistry; possibly also flow cytometry).
For assay [2] the target is unchanged. The assay is described as follows: immunohistochemistry of mouse cortical tissue 1 hour after 5 mg/kg i.v. dose (in vivo binding).
Assay [3] has the same target. The assay is described as follows: flow cytometry, HEK293 cells transiently expressing murine basigin.
Assay [4] shares this target. The assay is described as follows: flow cytometry, HEK293 cells transfected with murine basigin, PE-labelled secondary antibody.
Assay [5] shares this target. Kind of assay: flow cytometry, HEK293 cells transfected with murine basigin.

By UniProt entry, the sequences of proteins in these tests, tags left out. Where a name states a change or a piece, a line headed by the entry shows the natural chain unless it says otherwise.
UniProt P18572: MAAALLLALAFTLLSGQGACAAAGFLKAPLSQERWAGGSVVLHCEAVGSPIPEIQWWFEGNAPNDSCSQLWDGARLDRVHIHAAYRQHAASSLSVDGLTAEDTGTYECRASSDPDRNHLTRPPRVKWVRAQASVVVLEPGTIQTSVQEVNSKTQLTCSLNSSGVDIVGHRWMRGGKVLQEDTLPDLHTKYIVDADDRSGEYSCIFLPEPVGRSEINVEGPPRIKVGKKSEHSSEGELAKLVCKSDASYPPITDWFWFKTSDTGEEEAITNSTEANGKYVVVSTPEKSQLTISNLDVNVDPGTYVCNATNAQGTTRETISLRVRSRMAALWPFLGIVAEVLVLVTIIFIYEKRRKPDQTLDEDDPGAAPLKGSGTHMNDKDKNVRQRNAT

Substitutions are numbered along the chain they refer to. Results are given in words; binding and its absence hold for the method and conditions named. Binding calls can cover weak binding; strength is not graded here.

B1: anti-Bsg^C (antibody, V domains shown)
VH: EVQLVESGGSLVQPGRSMKVSCAASGFTFTKYYMAWVRQAPTKGLEWVASISTGGGNTYYRDSVKGRFTISRDNAKSTLYLQMDSLRSEDTATYYCARTLINYSDYADYVMDAWGQGASVTVSS
VL: DIQMTQSPASLSASLGETVSIECLASEGISNSLAWYQQKPGKSPQLLIYGASSLQDGVPSRFSGSGSGTQFSLKISGMQPEDEGIYYCQQGYKYPFTFGSGTKLEIK
As for B1, the binding result in assay [1] was “binds”.

B2: anti-Bsg^D (antibody, V domains shown)
VH: EVQLVESGGGLVQPGRSMKLSCAASGFTLSNYYMAWVRQAPTKGLEWVASISTGGGYTYYRDSVKGRFTISRDLAKSTLYLQMDSLRSEDTATYHCARSLINYRNYGDYVMDAWGQGASVTVSS
VL: B1 VL with G50D, D56V, F71Y, M78L, I85V
Take B2: the binding result in assay [1] was “binds”.

B3: anti-Bsg^A (antibody, V domains shown)
VH: EVQLVESGGGLVLPGRSMKLSCAASGFTFRTYYMAWVRQAPTKGLEWVASISIGGDNTYYRDSVMGRFTISRDDAKSTLHLQMDNLRSEDTATYYCVRLRGYFDYWGQGVMVTVSS
VL: EIVLTQSPATMPASPGEKVTLTCRASSSIRYIYWYQQKSGTSPKLWIYDTSKLASGVPNRFSGSGSGTSYSLTISSMETEDTATYYCQQGRSYPLTFGSGTKLEIK
notes: also called bivalent (monospecific) anti-Bsg^A
In the case of B3, the binding entry in assay [2], in assay [3], in assay [4] and in assay [5] was “binds” in each case.

B4: anti-Bsg^B (antibody, V domains shown)
VH: EVQLVESGGGLVQPGRSLKLSCVASGFTFNNYWMTWIRQAPGKGLEWFASITNTGGSTYYPDSVKGRFTISRDNAQSTLYLQTNSLRPEDTATYYCARRDGSYYPYYWYFDLWGPGTTVTVSS
VL: NTVMTQSPTSMFISVGDRVTMNCKASRSVGTNVDWYQQKTGQSPTLLFYGASNRYIGVPDRFTGSGSGTDFTLTISNMQAEDLAVYYCLQYNYNWAFGGGTKLELK
notes: also called bivalent (monospecific) anti-Bsg^B
Turning to B4, the binding result in assay [2], in assay [3], in assay [4] and in assay [5] was “binds” throughout.

B5: anti-Bsg^E (antibody, V domains shown)
VH: QVQLKESGPGLVQPSQTLSLTCSVSGLSLTTSSLSWIRQPPGKGLEWMGGIWSKGGTEYNSPIKSRLSISRDTSKSQIFLKMNSLQTEDTAMYFCARNGVYHNYWYFDFWGPGTMVTVSS
VL: QFTLTQPKSVSGSLRSTITIPCERSSGDIGHNYVSWYQQHLGRPPINVIYADDQRPSEVSDRFSGSIDSSSNSASLTITNLQMDDEADYFCQSYDSNVDIVFGGGTKLTVL
B5: the binding entry in assay [1] is given as “binds”.

Source of the values: patent US20180000964A1 (Genentech, published 2018).
